Measured values: US5156956A, “Transgultaminase” (Ajinomoto Co., Inc., priority 1987, dated 1992)

Key:
[1] = Sausage: rheometer and organoleptic evaluation
Description: Physical properties were measured with a rheometer (manufactured by Yamaden Co., Ltd.) and organoleptic evaluation (n=10) was performed. The amount of BTGase added was 1 unit per 1 g of dry pork. The enzyme reaction was carried out at 55° C. for 2 hours. After completion of the reaction, heating was performed at 80° C. for 30 minutes to make a product. As a control, BTGase-free product was used.

[2] = Japanese noodle: tensile test and organoleptic evaluation
[3] = Kamaboko (steamed fish paste): rheometer and organoleptic evaluation
[4] = 1 U per 1 g of protein, boiled 12 minutes, n = 10
[5] = 20 units per 1 g of dry fish paste, 34° C. 2 h, then 85° C. 30 min

B1: BTGase: microorganism-derived transglutaminase; in Examples 4-11 the freeze dried product prepared in Example 1 (S. mobaraense, i.e. BTG-1) (protein, UniProt P81453 77-407, looked up)
Protein-glutamine …: DSDDRVTPPAEPLDRMPDPYRPSYGRAETVVNNYIRKWQQVYSHRDGRKQQMTEEQREWLSYGCVGVTWVNSGQYPTNRLAFASFDEDRFKNELKNGRPRSGETRAEFEGRVAKESFDEEKGFQRAREVASVMNRALENAHDESAYLDNLKKELANGNDALRNEDARSPFYSALRNTPSFKERNGGNHDPSRMKAVIYSKHFWSGQDRSSSADKRKYGDPDAFRPAPGTGLVDMSRDRNIPRSPTSPGEGFVNFDYGWFGAQTEADADKTVWTHGNHYHAPNGSLGAMHVYESKFRNWSEGYSDFDRGAYVITFIPKSWNTAPDKVKQGWP
- Elasticity ([1]; 1 unit per 1 g of dry pork, 55° C. 2 h, then 80° C. 30 min): 5.83 × 10^5 dyn.cm^-2
- Organoleptic evaluation, texture against control ([1]; n=10): highly viscoelastic and preferable texture
- Breaking Strength [2, 4]: 885 ± 48 g
- Elongation (%) [2, 4]: 51 ± 13%
- Organoleptic evaluation, texture ([2]; n=15): noodles having a firm texture
- Breaking Strength [3, 5]: 804 ± 58 g
- Strain (%) [3, 5]: 46.3 ± 1.3%
- Organoleptic evaluation, texture against control ([3]; n=10): preferred texture
